No constants are given. Whether binding was seen depends on the method and setting.
Biological target: AUF1-p37^ΔN (residues 77–287) (human) (UniProt Q14103)
Assay: SEC; gel filtration after RNase A treatment (200 ug at cell lysis, 300 ug after Ni-NTA) and dialysis; HiPrep 16/60 Sephacryl S-300 HR, 25 mM Tris-HCl pH 7.5, 150 mM NaCl; without RNase A a broad peak of a multimeric form with bound E. coli RNA; both purified

By UniProt entry, the sequences of proteins in these tests, tags left out. Where a name states a change or a piece, a line headed by the entry shows the natural chain unless it says otherwise. Chains listed by the source or under a name are the forms on record and can include a tag or linker. Residues count along the entry.
AUF1-p37^ΔN (residues 77–287) (Q14103-4, form named): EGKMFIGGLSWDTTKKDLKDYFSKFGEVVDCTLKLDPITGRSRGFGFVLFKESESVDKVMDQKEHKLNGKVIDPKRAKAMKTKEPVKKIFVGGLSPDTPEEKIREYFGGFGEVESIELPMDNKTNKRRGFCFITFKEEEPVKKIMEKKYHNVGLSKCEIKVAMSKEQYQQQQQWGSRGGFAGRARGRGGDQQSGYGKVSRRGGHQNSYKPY

- binding: no binding
Substance: AUF1-p37^ΔN (residues 77–287) (from UniProt Q14103-4 77-287) (domain or fragment)

Source: paper PMC4942602
